Results deposited as PubChem BioAssay AID1259264 (Sanger Institute, 2017).
Screen: 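Kinases needed for CL40 growth and those that boost anti-cancer drug killing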 (primary screen). Cells: CL40 human colorectal cancer cells. Reagent: siRNA pool against human genes. Conditions: DMSO, or an anchor drug: BYL719 at 1 µM, cetuximab at 5 µg/ml, or trametinib at 10 nM. Read-out: 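Replicate-mean viability versus a non-targeting pool, robust z-score from control wells, and mean synergy with BYL719 1 µM, cetuximab 5 µg/ml or trametinib 10 nM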. Reading the numbers: robust z-score, siRNA alone: higher = more viable cells. Call rule: 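Essential call: siRNA with no drug reaches a robust z under -3 (low cell count); drug synergy scores do not affect it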. Calls: active = essential (lowers viability alone); inactive = not essential.
Here is an unselected part of 794 reagents tested. 15 of them (1.9%) were called active. 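Calls rest on knock-down alone at z-score below -3; synergy scores with the three drugs do not decide them.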 Not all columns of the deposit are shown. Not given: the amount of reagent, the time to read-out.

{"target":"PTK7 (protein tyrosine kinase 7 (inactive))","robust z-score, siRNA alone":0.183,"outcome":"inactive"}
{"target":"STK10 (serine/threonine kinase 10)","robust z-score, siRNA alone":0.539,"outcome":"inactive"}
{"target":"EPHB6 (EPH receptor B6)","robust z-score, siRNA alone":0.539,"outcome":"inactive"}
{"target":"PPP2R1A (protein phosphatase 2 scaffold subunit Aalpha)","robust z-score, siRNA alone":0.539,"outcome":"inactive"}
{"target":"WNK3 (WNK lysine deficient protein kinase 3)","robust z-score, siRNA alone":0.539,"outcome":"inactive"}
{"target":"XYLB (xylulokinase)","robust z-score, siRNA alone":0.386,"outcome":"inactive"}
{"target":"PTPRU (protein tyrosine phosphatase receptor type U)","robust z-score, siRNA alone":-0.0832,"outcome":"inactive"}
{"target":"TAF1L (TATA-box binding protein associated factor 1 like)","robust z-score, siRNA alone":0.539,"outcome":"inactive"}
{"target":"INSR (insulin receptor)","robust z-score, siRNA alone":0.482,"outcome":"inactive"}
{"target":"MAPK8 (mitogen-activated protein kinase 8)","robust z-score, siRNA alone":0.134,"outcome":"inactive"}
{"target":"MYO3B (myosin IIIB)","robust z-score, siRNA alone":0.539,"outcome":"inactive"}
{"target":"DDR2 (discoidin domain receptor tyrosine kinase 2)","robust z-score, siRNA alone":-0.254,"outcome":"inactive"}
{"target":"CTCF (CCCTC-binding factor)","robust z-score, siRNA alone":-2.11,"outcome":"inactive"}
{"target":"PRKAG3 (protein kinase AMP-activated non-catalytic subunit gamma 3)","robust z-score, siRNA alone":-2.77,"outcome":"inactive"}
{"target":"RIOK2 (RIO kinase 2)","robust z-score, siRNA alone":-1.45,"outcome":"inactive"}
{"target":"ACVR1C (activin A receptor type 1C)","robust z-score, siRNA alone":0.539,"outcome":"inactive"}
{"target":"PLK4 (polo like kinase 4)","robust z-score, siRNA alone":-1.46,"outcome":"inactive"}
{"target":"RFK (riboflavin kinase)","robust z-score, siRNA alone":0.344,"outcome":"inactive"}
{"target":"HUNK (hormonally up-regulated Neu-associated kinase)","robust z-score, siRNA alone":-0.904,"outcome":"inactive"}
{"target":"PKIB (cAMP-dependent protein kinase inhibitor beta)","robust z-score, siRNA alone":0.539,"outcome":"inactive"}
{"target":"ETNK2 (ethanolamine kinase 2)","robust z-score, siRNA alone":0.3,"outcome":"inactive"}
{"target":"SKAP1 (src kinase associated phosphoprotein 1)","robust z-score, siRNA alone":0.539,"outcome":"inactive"}
{"target":"STK25 (serine/threonine kinase 25)","robust z-score, siRNA alone":0.134,"outcome":"inactive"}
{"target":"ATRX (ATRX chromatin remodeler)","robust z-score, siRNA alone":0.539,"outcome":"inactive"}
{"target":"PEAK1 (pseudopodium enriched atypical kinase 1)","robust z-score, siRNA alone":-0.6,"outcome":"inactive"}
{"target":"TRPM7","robust z-score, siRNA alone":0.539,"outcome":"inactive"}
{"target":"MARK3 (microtubule affinity regulating kinase 3)","robust z-score, siRNA alone":0.539,"outcome":"inactive"}
{"target":"CUL1 (cullin 1)","robust z-score, siRNA alone":0.539,"outcome":"inactive"}
{"target":"AURKB (aurora kinase B)","robust z-score, siRNA alone":0.27,"outcome":"inactive"}
{"target":"PDK4 (pyruvate dehydrogenase kinase 4)","robust z-score, siRNA alone":0.539,"outcome":"inactive"}
{"target":"FGFR3 (fibroblast growth factor receptor 3)","robust z-score, siRNA alone":-0.702,"outcome":"inactive"}
{"target":"DGKG (diacylglycerol kinase gamma)","robust z-score, siRNA alone":0.539,"outcome":"inactive"}
{"target":"CSF1R (colony stimulating factor 1 receptor)","robust z-score, siRNA alone":0.309,"outcome":"inactive"}
{"target":"ACVRL1 (activin A receptor like type 1)","robust z-score, siRNA alone":0.389,"outcome":"inactive"}
{"target":"PKN2 (protein kinase N2)","robust z-score, siRNA alone":-0.579,"outcome":"inactive"}
{"target":"PIM2 (Pim-2 proto-oncogene, serine/threonine kinase)","robust z-score, siRNA alone":0.539,"outcome":"inactive"}
